From patent publication US5824484 come the findings set out here.

Sequences of proteins named here, by UniProt entry; tags and fusion partners are left off. A change or cut given only in a name is not applied to a line headed by its entry.
UniProt P19793: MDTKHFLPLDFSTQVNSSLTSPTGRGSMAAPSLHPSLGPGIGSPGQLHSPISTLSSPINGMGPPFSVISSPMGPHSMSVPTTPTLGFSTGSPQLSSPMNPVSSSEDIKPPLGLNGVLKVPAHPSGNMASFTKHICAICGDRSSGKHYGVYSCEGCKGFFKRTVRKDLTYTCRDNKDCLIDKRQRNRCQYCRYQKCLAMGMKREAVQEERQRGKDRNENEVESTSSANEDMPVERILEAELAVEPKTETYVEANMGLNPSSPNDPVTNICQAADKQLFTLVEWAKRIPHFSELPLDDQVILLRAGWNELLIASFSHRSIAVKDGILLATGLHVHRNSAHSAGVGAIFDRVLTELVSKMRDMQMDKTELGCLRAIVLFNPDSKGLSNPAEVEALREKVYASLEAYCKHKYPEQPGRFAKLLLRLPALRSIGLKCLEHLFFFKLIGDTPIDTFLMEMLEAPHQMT

Weaker means in comparison with the reference protein, sequence or condition of that experiment.

In the data set the target is RXR alpha homodimer (UniProt P19793). In words: EMSA. The note with it: with 9-cis-RA; considerably weaker than RAR-RXR heterodimer; protein translated in vitro; label: 32P. (In general: A gel shift assay detects complexes by their altered migration in electrophoresis.)

With “GATCTGTAGGGTTCACCGAAAGTTCACTCAGATC (double strand) [betaRARE]”, the binding result was “binds more weakly”.
